Experiment [1] has as its target endogenous AIF (apoptosis inducing factor) contained in human cell lysates (human) (UniProt O95831). The experiment in a line: GST pull-down of AIF from U2OS lysate.
Experiment [2] shares this target. The experiment in a line: co-immunoprecipitation from human cancer cell lysates.
Experiment [3] addresses GST-tagged AIF (GST-AIF) immobilized on glutathione-Sepharose beads (human) [GST: P08515]. The experiment in a line: GST pull-down of MIA40 from U2OS lysate on GST-tagged AIF.
The target is the same in experiment [4]. The experiment in a line: GST pull-down, GST-AIF on beads preincubated with pyridine nucleotides.

Amino acid sequences for entries named in this document (tags omitted). Residues count along the entry.
UniProt O95831, residues 55-613: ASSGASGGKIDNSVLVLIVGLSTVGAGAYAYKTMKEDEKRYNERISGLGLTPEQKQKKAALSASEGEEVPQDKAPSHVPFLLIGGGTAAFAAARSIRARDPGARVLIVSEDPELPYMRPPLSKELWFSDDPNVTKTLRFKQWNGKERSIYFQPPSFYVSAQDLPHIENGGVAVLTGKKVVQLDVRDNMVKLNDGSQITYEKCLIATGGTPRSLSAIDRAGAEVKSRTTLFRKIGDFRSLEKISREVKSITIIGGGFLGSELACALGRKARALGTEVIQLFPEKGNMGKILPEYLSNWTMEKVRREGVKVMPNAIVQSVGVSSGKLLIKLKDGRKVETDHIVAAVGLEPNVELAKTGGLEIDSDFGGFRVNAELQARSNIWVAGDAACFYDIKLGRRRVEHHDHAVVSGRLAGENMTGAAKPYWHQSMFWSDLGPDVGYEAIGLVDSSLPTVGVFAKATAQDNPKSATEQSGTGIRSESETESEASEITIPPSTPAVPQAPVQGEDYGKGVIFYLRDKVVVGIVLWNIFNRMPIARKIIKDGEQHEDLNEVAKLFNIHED

No constants are given. Whether binding was seen depends on the method and setting. In cells and extracts the contact can be indirect. Some entries that bind do so weakly or less than the wild type. For part of these data: Tags and fused reporters may be left off the sequences shown.

B1: GST-tagged truncation mutant of MIA40 (1-57) (protein, not shown: a dimerising Fc or GST; small tags and cut ends)
chain: MSYCRQEGKDRIIFVTKEDHETPSSAELVADDPNDPYEEHGLILPNGNINWNCPCLG
Take B1: in experiment [1], the binding result is “binds”.

B2: endogenous human MIA40 isoform 1 (CHCHD4.1) (protein)
chain: MSYCRQEGKDRIIFVTKEDHETPSSAELVADDPNDPYEEHGLILPNGNINWNCPCLGGMASGPCGEQFKSAFSCFHYSTEEIKGSDCVDQFRAMQECMQKYPDLYPQEDEDEEEEREKKPAEQAEETAPIEATATKEEEGSS
For the molecule B2, the binding result in experiment [2] and in experiment [3] was “binds” throughout.

B3: recombinant HA-tagged MIA40 isoform 1 (wt) (protein, not shown: small tags and cut ends)
chain: MSYCRQEGKDRIIFVTKEDHETPSSAELVADDPNDPYEEHGLILPNGNINWNCPCLGGMASGPCGEQFKSAFSCFHYSTEEIKGSDCVDQFRAMQECMQKYPDLYPQEDEDEEEEREKKPAEQAEETAPIEATATKEEEGSS
Take B3: the binding result in experiment [2] is “binds”.

B4: recombinant His-tagged full length MIA40 (protein, not shown: small tags and cut ends)
chain: MSYCRQEGKDRIIFVTKEDHETPSSAELVADDPNDPYEEHGLILPNGNINWNCPCLGGMASGPCGEQFKSAFSCFHYSTEEIKGSDCVDQFRAMQECMQKYPDLYPQEDEDEEEEREKKPAEQAEETAPIEATATKEEEGSS
Turning to B4, the binding result in experiment [4] was “binds”.

B5: GST-tagged full length MIA40 (wt) (protein, not shown: a dimerising Fc or GST)
chain: MSYCRQEGKDRIIFVTKEDHETPSSAELVADDPNDPYEEHGLILPNGNINWNCPCLGGMASGPCGEQFKSAFSCFHYSTEEIKGSDCVDQFRAMQECMQKYPDLYPQEDEDEEEEREKKPAEQAEETAPIEATATKEEEGSS
Take B5: in experiment [1], the binding result was “binds”.

The values are drawn from US20160031955A1 (INSERM INSTITUT NATIONAL DE LA SANT ET DE LA RECHERCHE M …, published 2016).
